In patent publication US8361988B2, “Nucleoside and nucleotide analogues with quaternary carbon centers and methods of use” (Institut de Recherches Cliniques de Montreal, priority 2007, dated 2013):

Columns and labels:
Conditions in all cases: Selectivity Index, ratio CC50/EC50
NCI H2052 = assay: MTT cell proliferation assay, NCI H2052
NCI H1395 = assay: MTT cell proliferation assay, NCI H1395
ZR-75-1 = assay: MTT cell proliferation assay, ZR-75-1; format: cell-based
Description: The antitumor activities of the compounds of the invention were evaluated by a cellular proliferation assay. The MTT [3-(4,5-dimethylthiazol-2-yl)-2,5-diphenyltetrazolium bromide] cell proliferation assay, first described by Mosmann (Mosmann T., “Rapid colorimetric assay for cellular growth and survival: application to proliferation and cytotoxicity assays,” J. Immunol. Methods 1983 Dec. 16; 65(1-2):55-63, and incorporated by reference in its entirety) is based on the ability of active mitochondrial reductase enzymes from viable cells to cleave the tetrazolium rings of the pale yellow MTT. The cleavage reaction form a purple formazan crystals which is largely impermeable to cell membranes resulting in its accumulation within healthy cells. Solubilisation of the cells by addition of a detergent liberates and solubilizes the formazan crystals. The number of surviving cells is directly proportional to the level of the formazan product created. The color can then be quantified spectrophotometrically. The production of purple formazan in cells treated with a compound is measured relative to the production in control cells, and dose-response curves can be generated. This assay measures the cell proliferation rate and conversely, when metabolic events lead to apoptosis or necrosis, the reduction in cell viability, thus also allowing the evaluation of the cytotoxicity of the analogues synthesized in the laboratory.
(§1) For Tables 3 and 4, the assays were performed with 1% DMSO. The abbreviation “n.d.” means “not determined.” The values EC50, CC50, and SI have the following definitions.
Cell growth equals total cell count without any inhibitor after 72 hours minus initial cell count. Total cell counts after 72 hrs of growth range from 230 to 346% of initial cell counts depending on the cell line.
Total cell counts after 24 hrs of growth range from 103 to 109% of initial cell counts depending on the cell line.
(§2) SI: Selectivity Index is the ratio CC50/EC50.

PFSK-1 = assay: MTT cell proliferation assay, PFSK-1; format: cell-based
Description: The antitumor activities of the compounds of the invention were evaluated by a cellular proliferation assay. […] The cleavage reaction form a purple formazan crystals which is largely impermeable to cell membranes resulting in its accumulation within healthy cells. Solubilisation of the cells by addition of a detergent liberates and solubilizes the formazan crystals. The number of surviving cells is directly proportional to the level of the formazan product created. The color can then be quantified spectrophotometrically. The production of purple formazan in cells treated with a compound is measured relative to the production in control cells, and dose-response curves can be generated. This assay measures the cell proliferation rate and conversely, when metabolic events lead to apoptosis or necrosis, the reduction in cell viability, thus also allowing the evaluation of the cytotoxicity of the analogues synthesized in the laboratory.
as §1
Cell growth equals total cell count without any inhibitor after 72 hours minus initial cell count.
as §2

| SMILES | SI (NCI H2052) | SI (NCI H1395) | SI (ZR-75-1) | SI (PFSK-1) |
| --- | --- | --- | --- | --- |
| COC(=O)C1(C)C[C@H](n2cc(C)c(=O)[nH]c2=O)O[C@@H]1CO (mixture of isomers) [LCB-1000] | 2.6 | >2.2 |  |  |
| COC(=O)C1(C)C[C@@H](n2cc(C)c(=O)[nH]c2=O)O[C@@H]1CO (mixture of isomers) [LCB-1001] | 2.3 | >7.4 |  |  |
| COC(=O)C1(C)C[C@@H](n2ccc(=O)[nH]c2=O)O[C@@H]1CO (mixture of isomers) [LCB-1002] | 3.0 | 44.8 |  |  |
| CC1(CO)C[C@@H](n2ccc(=O)[nH]c2=O)O[C@@H]1CO (mixture of isomers) [LCB-1003] | 53 | 6.0 |  |  |
| Cc1cn([C@@H]2CC(C)(CO)[C@@H](CO)O2)c(=O)[nH]c1=O (mixture of isomers) [LCB-1004] |  | >1.5 | >1.2 |  |
| Cc1cn([C@H]2CC(C)(CO)[C@@H](CO)O2)c(=O)[nH]c1=O (mixture of isomers) [LCB-1007] |  | 3.6 | >1.1 |  |
| COC(=O)C1(C)CC(n2cc(C)c(=O)[nH]c2=O)OC1CO (racemic) [LCB-1010, (±) methyl 2-(hydroxymethyl)-3-methyl-5-(5-methyl-2,4-dioxo-3,4-dihydropyrimidin-1(2H)-yl)tetrahydrofuran-3-carboxylate] |  |  | >2.8 |  |
| COC(=O)C1(C)C[C@H](n2cc(F)c(=O)[nH]c2=O)O[C@@H]1CO (mixture of isomers) [LCB-1015, 5-(5-Fluoro-2,4-dioxo-3,4-dihydro-2H-pyrimidin-1-yl)-2-hydroxymethyl-3-methyl-tetrahydro-furan-3-carboxylic acid methyl ester] |  |  | >1.1 | >1.3 |
| CC1(C(N)=O)CC(n2cc(F)c(N)nc2=O)O[C@@H]1CO (mixture of isomers) [LCB-1030] | >1.0 |  |  |  |
| CCOC(=O)[C@@H]1O[C@H](n2cc(F)c(=O)[nH]c2=O)CC1(C)C(=O)OCC (stereo in doubt) [LCB-1024, (2R,5S)-diethyl5-(5-fluoro-2,4-dioxo-3,4-dihydropyrimidin-1(2H)-yl)-3-methyltetrahydrofuran-2,3-dicarboxylate] |  | >2.7 |  | >2.4 |
| COC(=O)c1cn([C@H]2S[C@@H](CO)C(O)[C@@H]2O)nn1 (some centres unmarked) [LCB-1013] |  |  | >1.3 | >1.1 |
